Measured values: article PMC3050690

Target: T1, MalE-GadX (GadX fused to maltose-binding protein) (Escherichia coli K-12 (genomic library)) (UniProt P37639)
T1 sequence (looked up): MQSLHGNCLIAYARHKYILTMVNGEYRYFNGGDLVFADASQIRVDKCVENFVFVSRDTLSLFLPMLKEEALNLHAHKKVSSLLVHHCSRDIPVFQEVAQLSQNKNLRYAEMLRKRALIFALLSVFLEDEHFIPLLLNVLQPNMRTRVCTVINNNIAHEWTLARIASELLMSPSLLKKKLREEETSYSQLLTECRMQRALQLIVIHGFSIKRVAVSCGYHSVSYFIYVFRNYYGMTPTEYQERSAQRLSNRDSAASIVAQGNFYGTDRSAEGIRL
Assay: EMSA
Conditions: 2, 4, 6 pmol protein in 10 ul, 6 fmol DNA, dose-dependent shift; EMSA: binding buffer of Tramonti et al. (not given), room temperature 20 min, 5% native PAGE 0.5X TBE; recombinant protein; residues 1-274; protein details: N-terminal MBP (MalE); label: 32P (5' end); probe letters rebuilt from the primers and the genome

GGCTCTAGAAAACGGTGCCATCATACTTTGCAAACGTACCACTTTTTCGGCTAACTGCGCTTCATACTGTTCTGTTGGAAGGTGTTCGGGGGTCATGATGTATCCTGAAAAATTAAAGTACGCGGCGATTGTAGGGATTGCTCATCAGATGTCCAGATCTTGATGAATTCCTATTTGTGAGCTACGTCTGGACAGTAACTTGTTACAACCTGTAGCATCCACTTGCCGGTCCTGTGAGTTAATAGGGAATCCAGTGCGAATCTGGAGCTGACGCGCAGCGGTAAGGAAAGGTGCGATGATTGCGTTATGCGGACACTGCCATTCGGTGGGAAGTCATCATCTCTTAGTATCTTAGATACCCCTCCAAGCCCGAAGACCTGCCGGCCAACGTCGCATCTGGTTCTCATCATCGCGTAATATTGATGAAACCTGCGGCATCCTTCTTCTATTGTGGATGCTTTACAATGATAAGCTTGCC (double strand) [PbtuB 461-bp promoter fragment]
binding result: binds

Tags and fusion partners may be left off the protein sequences shown.
